Laboratory results taken from patent US20180044406A1 (UNIVERSITY OF ROCHESTER, published 2018).
These are yes or no findings as the source states them, for the method shown. Some results given as binding are weak or reduced against the parent protein; the word gives no strength. Tags and fused reporters may be left off the sequences shown.

T1: native Gmd of S. aureus (glucosaminidase of autolysin, in growing cultures of UAMS-1 / Xen29) (Staphylococcus aureus) (UniProt A7X0T9)
T1 sequence: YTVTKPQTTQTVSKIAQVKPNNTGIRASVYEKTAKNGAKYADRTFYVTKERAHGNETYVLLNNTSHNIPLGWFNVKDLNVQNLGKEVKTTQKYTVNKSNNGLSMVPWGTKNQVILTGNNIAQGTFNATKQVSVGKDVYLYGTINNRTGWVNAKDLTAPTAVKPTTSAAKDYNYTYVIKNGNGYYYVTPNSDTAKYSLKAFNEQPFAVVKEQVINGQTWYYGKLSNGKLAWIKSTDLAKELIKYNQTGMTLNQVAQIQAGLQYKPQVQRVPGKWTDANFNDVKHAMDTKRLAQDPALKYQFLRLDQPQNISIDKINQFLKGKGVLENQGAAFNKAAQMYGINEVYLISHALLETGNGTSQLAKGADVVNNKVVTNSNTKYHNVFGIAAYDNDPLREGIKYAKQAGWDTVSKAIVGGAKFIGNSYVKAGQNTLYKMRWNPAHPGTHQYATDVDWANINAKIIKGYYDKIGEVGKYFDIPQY

B1: monoclonal antibody 4A12 (mouse IgG1) (antibody, V domains shown)
VH: QVQLQQPGAELVGPGTSVKLSCKSSGYTFTKYWMHWLKQRPGQGLEWIGVIDPSDSYTNYNQKFKGKATLTVDTSSSTAYLQLSSLTSEDSAVYYCANYYGSYYDVMDFWGQGTSVTVSS
VL: DVQITQSPSYLAASPGETITINCRASKSISKYLAWYQEKPGKTNKLLICFGSTLQSGTPSRFSGSGSGTDFTLTISSLEPEDFATYYCQQHNEYPLTFGAGTKLELKR
B2: human:mouse chimeric 4A12 (h4A12) (antibody, V domains shown)
VH: B1 VH
VL: B1 VL

Target: T1, native Gmd of S. aureus (glucosaminidase of autolysin, in growing cultures of UAMS-1 / Xen29) (Staphylococcus aureus)
Assay: inferred from effects on growing S. aureus cultures

| Binder | binding |
| --- | --- |
| B1 | binds |
| B2 | binds |
